For the experiment, the target named is CD44 standard form (CD44s), overexpressed as two differently tagged copies, CD44-FLAG and CD44-YFP (UniProt P16070). Nature of the experiment: co-IP; IMR90 cells overexpressing CD44-FLAG and CD44-YFP, incubated 6 h with 20 ug/ml cNSF-HA, fNSF-HA or PBS; cells cross-linked with 500 uM DSP and 500 uM DTME before harvest; RIPA lysis, buffer exchanged to 0.05% TBST; anti-FLAG (M2) cross-linked to Protein G Dynabeads; CD44-YFP detected by anti-GFP Western blot (n = 9). (In general: In western blotting, separated proteins are transferred to a membrane and probed.)

Chains of the proteins cited; added tags and fusions are not shown. Lines headed by an entry give the natural chain unless they say otherwise; changes in a name come on top. A line that says so, or that is headed by a name, gives the form on record, which may keep a tag or linker.
CD44 standard form (CD44s), overexpressed as two differently tagged copies, CD44-FLAG and CD44-YFP (P16070-12, form named): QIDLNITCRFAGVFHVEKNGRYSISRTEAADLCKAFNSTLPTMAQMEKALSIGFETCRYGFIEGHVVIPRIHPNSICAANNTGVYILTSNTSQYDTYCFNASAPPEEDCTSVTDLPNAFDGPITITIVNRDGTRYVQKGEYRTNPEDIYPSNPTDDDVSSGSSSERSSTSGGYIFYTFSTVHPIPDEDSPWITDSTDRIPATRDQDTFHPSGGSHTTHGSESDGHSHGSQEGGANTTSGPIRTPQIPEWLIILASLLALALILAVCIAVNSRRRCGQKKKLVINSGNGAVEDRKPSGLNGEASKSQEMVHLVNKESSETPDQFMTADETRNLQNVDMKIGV

Results are given in words; binding and its absence hold for the method and conditions named. Binding seen in cells or lysates may run through a third protein. Some results given as binding are weak or reduced against the parent protein; the word gives no strength.

As for “CD44 standard form (CD44s), overexpressed as two differently tagged copies, CD44-FLAG and CD44-YFP (from UniProt P16070-12 21-361) (receptor)”, the binding entry is on record as “binds”.

Values taken from article PMC7217962.
